Residue numbers refer to the chain shown, from its start. In names and notes the source's numbering stands. No constants are given. Whether binding was seen depends on the method and setting. Some binding calls cover weakened binding; strength is not graded here. For some of these results: Where a sequence is shown, tags or fusion partners need not be part of it.
T1: Mia40 (S. cerevisiae (endogenous in mitochondria isolated from WT yeast)), P36046
T1 chain: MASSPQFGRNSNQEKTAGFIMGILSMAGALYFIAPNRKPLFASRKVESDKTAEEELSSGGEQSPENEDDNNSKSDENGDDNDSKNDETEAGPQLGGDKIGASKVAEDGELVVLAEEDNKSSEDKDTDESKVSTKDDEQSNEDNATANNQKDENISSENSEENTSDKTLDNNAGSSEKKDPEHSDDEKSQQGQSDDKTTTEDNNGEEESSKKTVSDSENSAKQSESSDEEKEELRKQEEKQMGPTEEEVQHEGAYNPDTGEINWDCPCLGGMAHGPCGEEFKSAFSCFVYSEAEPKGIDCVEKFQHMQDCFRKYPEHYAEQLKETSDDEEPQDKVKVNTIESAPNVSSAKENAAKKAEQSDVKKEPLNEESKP

T2: Mia40 (S. cerevisiae (endogenous in mitochondria isolated from WT yeast)) (UniProt P36046)
T2 sequence: T1 chain

B1: Cox12, Q01519 1-83 (protein)
chain: MADQENSPLHTVGFDARFPQQNQTKHCWQSYVDYHKCVNMKGEDFAPCKVFWKTYNALCPLDWIEKWDDQREKGIFAGDINSD
modifications: here or on the partner: [35S]methionine-labeled
B2: Cox12_(C27S-FLAG) (protein, UniProt Q01519 1-83)
chain: B1 chain with C27S
modifications: [35S]methionine-labeled
B3: Cox12_(C37S-FLAG) (protein, UniProt Q01519 1-83)
chain: B1 chain with C37S
modifications: [35S]methionine-labeled
B4: Cox12_(C-FREE) (protein, UniProt Q01519 1-83)
chain: B1 chain with C27S, C37S, C48S, C59S
modifications: [35S]methionine-labeled

Experiments:
[1] = biological target: T1, Mia40 (S. cerevisiae (endogenous in …)); assay: in organello import with non-reducing SDS-PAGE and autoradiography (disulfide-bonded import intermediate); radiolabeled protein incubated with mitochondria isolated from WT yeast in import buffer (250 mM sucrose, 80 mM KCl, 10 mM MOPS-KOH, pH 7.2, 2 mM ATP, 2 mM NADH) at 25 °C; stopped with 50 mM IA; samples in Laemmli buffer with 50 mM IA for non-reducing SDS-PAGE; conditions: remark: other sources report otherwise
[2] = biological target: T2, Mia40 (S. cerevisiae (endogenous in mitochondria isolated from WT yeast)); assay: as above

Binder | binding [1] | binding [2]
B1 | binds | –
B2 | – | binds
B3 | – | binds
B4 | – | no binding
